{"source": "PubChem BioAssay AID743121 (NCATS, 2013)", "test": "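Partners whose loss is lethal together with topoisomerase I blockade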 (primary screen)", "cell system": "MDA-MB-231 cells, a human breast cancer line", "reagents": "single siRNA against human genes, 20 nM siRNA (0.8 pmol per well)", "duration": "120 h (drug added 48 h after transfection, read 72 h later)", "conditions": "camptothecin 20 nM (about EC30) for 72 h; vehicle 0.1% DMSO in parallel plates", "measured": "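CellTiter-Glo ATP signal, scaled to control siRNA as percent viability; sensitisation given as log2 of untreated divided by camptothecin-treated viability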", "scale": "log2 vehicle/camptothecin viability: higher = stronger sensitisation to camptothecin", "call rule": "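Each gene scored by redundant siRNA activity (RSA) over its individual siRNA ratios; a gene is called active at p < 0.001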", "note": "The deposit covers about 26,000 reagents; shown is an unselected part. Over the whole deposit, 167 (0.63%) are marked active. 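Calls are per gene from RSA p-values that are not deposited; an individual active-marked siRNA can sensitise only weakly.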 Unmarked entries are inactive. The numbers tell different reagents against one gene apart. Further read-outs or replicates are left out here. No sequences are given here."}
The opening 3 records, ahead of the listing:
{"target gene": "NAALAD2 (GeneID 10003)", "reagent no.": 1, "log2 vehicle/camptothecin viability": -0.255}
{"target gene": "NAALAD2 (GeneID 10003)", "reagent no.": 2, "log2 vehicle/camptothecin viability": -0.286}
{"target gene": "NAALAD2 (GeneID 10003)", "reagent no.": 3, "log2 vehicle/camptothecin viability": 0.0884}

The list itself, from the start:
{"target gene": "NAALAD2 (GeneID 10003)", "reagent no.": 1, "log2 vehicle/camptothecin viability": -0.255}
{"target gene": "NAALAD2 (GeneID 10003)", "reagent no.": 2, "log2 vehicle/camptothecin viability": -0.286}
{"target gene": "NAALAD2 (GeneID 10003)", "reagent no.": 3, "log2 vehicle/camptothecin viability": 0.0884}
{"target gene": "NAALAD2 (GeneID 10003)", "reagent no.": 4, "log2 vehicle/camptothecin viability": -0.00508}
{"target gene": "ADIPOR1 (GeneID 51094)", "reagent no.": 1, "log2 vehicle/camptothecin viability": -0.104}
{"target gene": "ADIPOR1 (GeneID 51094)", "reagent no.": 2, "log2 vehicle/camptothecin viability": -0.411}
{"target gene": "ADIPOR1 (GeneID 51094)", "reagent no.": 3, "log2 vehicle/camptothecin viability": -0.674}
{"target gene": "ADIPOR1 (GeneID 51094)", "reagent no.": 4, "log2 vehicle/camptothecin viability": -0.416}
{"target gene": "ZNF845 (GeneID 91664)", "reagent no.": 1, "log2 vehicle/camptothecin viability": -0.286}
{"target gene": "ZNF845 (GeneID 91664)", "reagent no.": 2, "log2 vehicle/camptothecin viability": -0.32}
{"target gene": "ZNF845 (GeneID 91664)", "reagent no.": 3, "log2 vehicle/camptothecin viability": -0.231}
{"target gene": "ZNF845 (GeneID 91664)", "reagent no.": 4, "log2 vehicle/camptothecin viability": -0.044}
{"target gene": "ZNF845 (GeneID 91664)", "reagent no.": 5, "log2 vehicle/camptothecin viability": -0.387}
{"target gene": "ZNF845 (GeneID 91664)", "reagent no.": 6, "log2 vehicle/camptothecin viability": -0.177}
{"target gene": "ZNF845 (GeneID 91664)", "reagent no.": 7, "log2 vehicle/camptothecin viability": 0.0613}
{"target gene": "ZNF845 (GeneID 91664)", "reagent no.": 8, "log2 vehicle/camptothecin viability": -0.13}
{"target gene": "FGF19 (GeneID 9965)", "reagent no.": 1, "log2 vehicle/camptothecin viability": -0.152}
{"target gene": "FGF19 (GeneID 9965)", "reagent no.": 2, "log2 vehicle/camptothecin viability": -0.286}
{"target gene": "FGF19 (GeneID 9965)", "reagent no.": 3, "log2 vehicle/camptothecin viability": 0.275}
{"target gene": "FGF19 (GeneID 9965)", "reagent no.": 4, "log2 vehicle/camptothecin viability": -0.642}
{"target gene": "AFG3L2 (GeneID 10939)", "reagent no.": 1, "log2 vehicle/camptothecin viability": -0.232}
{"target gene": "AFG3L2 (GeneID 10939)", "reagent no.": 2, "log2 vehicle/camptothecin viability": -0.395}
{"target gene": "AFG3L2 (GeneID 10939)", "reagent no.": 3, "log2 vehicle/camptothecin viability": -0.135}
{"target gene": "AFG3L2 (GeneID 10939)", "reagent no.": 4, "log2 vehicle/camptothecin viability": -0.272}
{"target gene": "ADORA3 (GeneID 140)", "reagent no.": 1, "log2 vehicle/camptothecin viability": -0.343}
{"target gene": "ADORA3 (GeneID 140)", "reagent no.": 2, "log2 vehicle/camptothecin viability": -0.13}
{"target gene": "ADORA3 (GeneID 140)", "reagent no.": 3, "log2 vehicle/camptothecin viability": 0.155}
{"target gene": "ADORA3 (GeneID 140)", "reagent no.": 4, "log2 vehicle/camptothecin viability": -0.175}
{"target gene": "ADORA3 (GeneID 140)", "reagent no.": 5, "log2 vehicle/camptothecin viability": 1.19}
{"target gene": "ADORA3 (GeneID 140)", "reagent no.": 6, "log2 vehicle/camptothecin viability": -0.848}
{"target gene": "ADORA3 (GeneID 140)", "reagent no.": 7, "log2 vehicle/camptothecin viability": -0.0756}
{"target gene": "ADORA3 (GeneID 140)", "reagent no.": 8, "log2 vehicle/camptothecin viability": -0.118}
{"target gene": "HSD17B2 (GeneID 3294)", "reagent no.": 1, "log2 vehicle/camptothecin viability": -0.466}
{"target gene": "HSD17B2 (GeneID 3294)", "reagent no.": 2, "log2 vehicle/camptothecin viability": -0.468}
{"target gene": "HSD17B2 (GeneID 3294)", "reagent no.": 3, "log2 vehicle/camptothecin viability": 0.199}
{"target gene": "HSD17B2 (GeneID 3294)", "reagent no.": 4, "log2 vehicle/camptothecin viability": -0.423}
